For assay [1], the target named is Myc-tagged Nkx2-5 (UniProt P42582). The assay is described as follows: co-IP; nuclear extract of transfected COS-7 cells (NE-PER reagents), 24 h after transfection (Fig. 3D).
Assay [2] shares this target. In words: co-IP; COS-7 cells transfected with both; lysed in RIPA buffer; Myc-tagged Nkx2-5 precipitated, Flag-tagged Smad4 constructs detected with anti-Smad4 and anti-Flag antibodies (Fig. 3B).
Assay [3] has as its target Flag-tagged Smad4 (UniProt Q13485). The assay is described as follows: co-IP; COS-7 cells transfected with both; lysed in RIPA buffer; Flag-tagged Smad4 precipitated, Myc-Nkx2-5 detected with anti-Nkx2-5 and anti-Myc antibodies (Fig. 3A).

Chains of the proteins cited; added tags and fusions are not shown.
UniProt P42582: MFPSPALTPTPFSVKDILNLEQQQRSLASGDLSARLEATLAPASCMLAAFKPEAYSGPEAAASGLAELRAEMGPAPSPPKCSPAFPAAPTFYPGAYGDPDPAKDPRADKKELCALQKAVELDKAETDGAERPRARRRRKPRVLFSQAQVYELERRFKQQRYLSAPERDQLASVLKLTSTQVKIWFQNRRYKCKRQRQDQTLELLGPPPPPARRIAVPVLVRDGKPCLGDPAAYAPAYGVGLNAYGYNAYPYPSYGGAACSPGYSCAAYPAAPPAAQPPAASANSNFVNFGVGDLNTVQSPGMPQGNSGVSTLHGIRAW
UniProt Q13485: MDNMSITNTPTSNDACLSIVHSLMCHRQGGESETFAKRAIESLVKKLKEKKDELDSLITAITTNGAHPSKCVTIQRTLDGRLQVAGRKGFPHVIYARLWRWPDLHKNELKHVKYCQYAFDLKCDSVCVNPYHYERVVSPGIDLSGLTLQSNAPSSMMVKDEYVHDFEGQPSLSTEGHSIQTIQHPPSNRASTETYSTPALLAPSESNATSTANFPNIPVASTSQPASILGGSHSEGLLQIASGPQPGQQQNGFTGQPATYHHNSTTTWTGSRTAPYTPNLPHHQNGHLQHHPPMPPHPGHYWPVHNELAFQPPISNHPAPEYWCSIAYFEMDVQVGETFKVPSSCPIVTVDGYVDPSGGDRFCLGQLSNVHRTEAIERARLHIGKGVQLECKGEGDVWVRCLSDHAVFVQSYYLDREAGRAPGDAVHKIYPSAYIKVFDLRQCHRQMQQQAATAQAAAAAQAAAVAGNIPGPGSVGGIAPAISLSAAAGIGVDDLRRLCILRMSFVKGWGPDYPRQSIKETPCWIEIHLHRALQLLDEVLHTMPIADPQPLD

Results are given in words; binding and its absence hold for the method and conditions named. In cells and extracts the contact can be indirect. Some binding calls cover weakened binding; strength is not graded here.

Drawing on article PMC7878807, this text covers binding for two substances.

Take “Flag-tagged Smad4 (from UniProt Q13485 1-552)”: the binding result in assay [1] and in assay [2] was “binds” each time. On to “Myc-tagged Nkx2-5 (from UniProt P42582 1-318)”, for which the binding result in assay [3] is “binds”.
